# According to the supplement of paper PMC12819154, “High-throughput peptide-centric local stability assay extends protein–ligand identification to membrane proteins, tissues and bacteria” (Nature Structural & Molecular Biology, 2025):
# Amino acid sequences for entries named in this document (tags omitted). A change or cut given only in a name is not applied to a line headed by its entry.
# UniProt Q8WTS1: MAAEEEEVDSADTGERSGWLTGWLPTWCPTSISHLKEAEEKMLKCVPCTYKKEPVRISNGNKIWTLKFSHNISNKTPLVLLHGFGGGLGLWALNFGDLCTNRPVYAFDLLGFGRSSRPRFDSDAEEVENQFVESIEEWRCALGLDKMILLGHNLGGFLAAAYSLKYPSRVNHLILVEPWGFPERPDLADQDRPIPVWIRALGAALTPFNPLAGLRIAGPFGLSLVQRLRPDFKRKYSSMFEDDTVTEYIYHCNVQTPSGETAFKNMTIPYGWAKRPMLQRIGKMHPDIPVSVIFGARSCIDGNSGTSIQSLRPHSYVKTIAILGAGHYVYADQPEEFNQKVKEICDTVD
# UniProt Q8WUR7: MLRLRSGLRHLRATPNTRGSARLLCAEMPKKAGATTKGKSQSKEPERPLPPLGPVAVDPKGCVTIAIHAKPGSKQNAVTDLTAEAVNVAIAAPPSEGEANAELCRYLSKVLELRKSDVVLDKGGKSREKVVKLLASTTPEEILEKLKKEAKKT
# UniProt Q8TE49: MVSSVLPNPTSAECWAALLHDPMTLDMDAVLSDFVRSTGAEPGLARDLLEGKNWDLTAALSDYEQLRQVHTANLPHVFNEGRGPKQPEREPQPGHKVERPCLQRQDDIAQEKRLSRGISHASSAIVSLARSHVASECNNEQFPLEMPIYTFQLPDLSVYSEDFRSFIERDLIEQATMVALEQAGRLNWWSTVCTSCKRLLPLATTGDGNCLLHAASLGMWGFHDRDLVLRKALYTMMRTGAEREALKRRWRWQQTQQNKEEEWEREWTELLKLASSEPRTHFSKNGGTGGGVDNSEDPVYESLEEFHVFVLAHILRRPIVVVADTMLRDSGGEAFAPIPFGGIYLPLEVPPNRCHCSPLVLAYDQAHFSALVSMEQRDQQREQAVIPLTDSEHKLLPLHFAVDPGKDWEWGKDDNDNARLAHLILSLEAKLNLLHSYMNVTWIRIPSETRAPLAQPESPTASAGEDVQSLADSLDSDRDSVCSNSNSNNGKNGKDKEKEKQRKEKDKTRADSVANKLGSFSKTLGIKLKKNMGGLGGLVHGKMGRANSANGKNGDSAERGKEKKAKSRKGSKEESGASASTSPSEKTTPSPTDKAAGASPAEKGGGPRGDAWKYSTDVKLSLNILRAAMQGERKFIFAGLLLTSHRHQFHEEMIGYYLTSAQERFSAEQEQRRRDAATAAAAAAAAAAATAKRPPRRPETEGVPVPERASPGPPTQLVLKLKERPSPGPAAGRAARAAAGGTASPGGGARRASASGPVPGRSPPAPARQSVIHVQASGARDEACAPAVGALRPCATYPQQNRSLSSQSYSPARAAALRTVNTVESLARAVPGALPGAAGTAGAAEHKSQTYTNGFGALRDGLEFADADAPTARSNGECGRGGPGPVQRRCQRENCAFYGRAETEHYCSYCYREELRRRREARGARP
# UniProt Q8WXX5: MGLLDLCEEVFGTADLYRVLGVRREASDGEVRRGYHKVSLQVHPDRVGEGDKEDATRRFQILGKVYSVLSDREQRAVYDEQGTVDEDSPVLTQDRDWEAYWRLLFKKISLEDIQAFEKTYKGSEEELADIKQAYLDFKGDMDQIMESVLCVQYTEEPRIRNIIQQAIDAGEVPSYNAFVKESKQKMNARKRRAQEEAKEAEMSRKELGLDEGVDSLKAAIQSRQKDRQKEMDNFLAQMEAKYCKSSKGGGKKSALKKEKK
# UniProt Q8WUM0: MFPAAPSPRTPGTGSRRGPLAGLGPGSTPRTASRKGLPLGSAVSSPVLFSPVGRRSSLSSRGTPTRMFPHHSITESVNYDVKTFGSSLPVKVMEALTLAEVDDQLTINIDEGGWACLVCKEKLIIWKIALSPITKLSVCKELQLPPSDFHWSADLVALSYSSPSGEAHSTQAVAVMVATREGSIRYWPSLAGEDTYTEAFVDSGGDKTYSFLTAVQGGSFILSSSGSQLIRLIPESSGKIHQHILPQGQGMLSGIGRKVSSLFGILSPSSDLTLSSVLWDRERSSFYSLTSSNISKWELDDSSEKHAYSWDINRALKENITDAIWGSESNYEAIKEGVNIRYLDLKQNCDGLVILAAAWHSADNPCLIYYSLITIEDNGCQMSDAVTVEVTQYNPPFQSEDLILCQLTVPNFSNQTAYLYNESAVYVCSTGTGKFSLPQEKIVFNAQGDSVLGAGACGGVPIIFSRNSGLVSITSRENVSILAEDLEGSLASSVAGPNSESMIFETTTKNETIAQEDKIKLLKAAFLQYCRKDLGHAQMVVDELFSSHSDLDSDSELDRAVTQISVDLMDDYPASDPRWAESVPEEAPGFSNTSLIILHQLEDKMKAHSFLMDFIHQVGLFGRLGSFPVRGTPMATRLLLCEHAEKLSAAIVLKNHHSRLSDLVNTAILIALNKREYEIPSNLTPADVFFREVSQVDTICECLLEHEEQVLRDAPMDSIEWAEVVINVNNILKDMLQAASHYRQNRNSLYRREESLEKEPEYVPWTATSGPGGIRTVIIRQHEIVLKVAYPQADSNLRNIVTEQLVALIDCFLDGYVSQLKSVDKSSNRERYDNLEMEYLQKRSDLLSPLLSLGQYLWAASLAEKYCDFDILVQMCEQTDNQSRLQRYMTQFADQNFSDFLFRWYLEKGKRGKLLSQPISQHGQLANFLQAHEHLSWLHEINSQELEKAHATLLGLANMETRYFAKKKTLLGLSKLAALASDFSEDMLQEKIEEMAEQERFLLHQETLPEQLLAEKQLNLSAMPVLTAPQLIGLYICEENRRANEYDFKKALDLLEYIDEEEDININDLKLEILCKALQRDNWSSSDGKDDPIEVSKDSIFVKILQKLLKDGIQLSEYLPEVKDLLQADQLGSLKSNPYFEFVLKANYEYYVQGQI
# UniProt Q92600, whole entry: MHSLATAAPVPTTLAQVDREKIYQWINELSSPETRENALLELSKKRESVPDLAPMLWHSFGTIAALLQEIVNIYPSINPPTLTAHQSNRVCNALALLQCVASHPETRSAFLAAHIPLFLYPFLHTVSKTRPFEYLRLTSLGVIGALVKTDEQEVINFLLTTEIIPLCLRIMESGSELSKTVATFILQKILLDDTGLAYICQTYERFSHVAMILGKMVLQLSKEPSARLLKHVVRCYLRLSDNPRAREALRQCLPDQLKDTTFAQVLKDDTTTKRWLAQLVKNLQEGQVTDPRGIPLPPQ
# UniProt Q92616, whole entry: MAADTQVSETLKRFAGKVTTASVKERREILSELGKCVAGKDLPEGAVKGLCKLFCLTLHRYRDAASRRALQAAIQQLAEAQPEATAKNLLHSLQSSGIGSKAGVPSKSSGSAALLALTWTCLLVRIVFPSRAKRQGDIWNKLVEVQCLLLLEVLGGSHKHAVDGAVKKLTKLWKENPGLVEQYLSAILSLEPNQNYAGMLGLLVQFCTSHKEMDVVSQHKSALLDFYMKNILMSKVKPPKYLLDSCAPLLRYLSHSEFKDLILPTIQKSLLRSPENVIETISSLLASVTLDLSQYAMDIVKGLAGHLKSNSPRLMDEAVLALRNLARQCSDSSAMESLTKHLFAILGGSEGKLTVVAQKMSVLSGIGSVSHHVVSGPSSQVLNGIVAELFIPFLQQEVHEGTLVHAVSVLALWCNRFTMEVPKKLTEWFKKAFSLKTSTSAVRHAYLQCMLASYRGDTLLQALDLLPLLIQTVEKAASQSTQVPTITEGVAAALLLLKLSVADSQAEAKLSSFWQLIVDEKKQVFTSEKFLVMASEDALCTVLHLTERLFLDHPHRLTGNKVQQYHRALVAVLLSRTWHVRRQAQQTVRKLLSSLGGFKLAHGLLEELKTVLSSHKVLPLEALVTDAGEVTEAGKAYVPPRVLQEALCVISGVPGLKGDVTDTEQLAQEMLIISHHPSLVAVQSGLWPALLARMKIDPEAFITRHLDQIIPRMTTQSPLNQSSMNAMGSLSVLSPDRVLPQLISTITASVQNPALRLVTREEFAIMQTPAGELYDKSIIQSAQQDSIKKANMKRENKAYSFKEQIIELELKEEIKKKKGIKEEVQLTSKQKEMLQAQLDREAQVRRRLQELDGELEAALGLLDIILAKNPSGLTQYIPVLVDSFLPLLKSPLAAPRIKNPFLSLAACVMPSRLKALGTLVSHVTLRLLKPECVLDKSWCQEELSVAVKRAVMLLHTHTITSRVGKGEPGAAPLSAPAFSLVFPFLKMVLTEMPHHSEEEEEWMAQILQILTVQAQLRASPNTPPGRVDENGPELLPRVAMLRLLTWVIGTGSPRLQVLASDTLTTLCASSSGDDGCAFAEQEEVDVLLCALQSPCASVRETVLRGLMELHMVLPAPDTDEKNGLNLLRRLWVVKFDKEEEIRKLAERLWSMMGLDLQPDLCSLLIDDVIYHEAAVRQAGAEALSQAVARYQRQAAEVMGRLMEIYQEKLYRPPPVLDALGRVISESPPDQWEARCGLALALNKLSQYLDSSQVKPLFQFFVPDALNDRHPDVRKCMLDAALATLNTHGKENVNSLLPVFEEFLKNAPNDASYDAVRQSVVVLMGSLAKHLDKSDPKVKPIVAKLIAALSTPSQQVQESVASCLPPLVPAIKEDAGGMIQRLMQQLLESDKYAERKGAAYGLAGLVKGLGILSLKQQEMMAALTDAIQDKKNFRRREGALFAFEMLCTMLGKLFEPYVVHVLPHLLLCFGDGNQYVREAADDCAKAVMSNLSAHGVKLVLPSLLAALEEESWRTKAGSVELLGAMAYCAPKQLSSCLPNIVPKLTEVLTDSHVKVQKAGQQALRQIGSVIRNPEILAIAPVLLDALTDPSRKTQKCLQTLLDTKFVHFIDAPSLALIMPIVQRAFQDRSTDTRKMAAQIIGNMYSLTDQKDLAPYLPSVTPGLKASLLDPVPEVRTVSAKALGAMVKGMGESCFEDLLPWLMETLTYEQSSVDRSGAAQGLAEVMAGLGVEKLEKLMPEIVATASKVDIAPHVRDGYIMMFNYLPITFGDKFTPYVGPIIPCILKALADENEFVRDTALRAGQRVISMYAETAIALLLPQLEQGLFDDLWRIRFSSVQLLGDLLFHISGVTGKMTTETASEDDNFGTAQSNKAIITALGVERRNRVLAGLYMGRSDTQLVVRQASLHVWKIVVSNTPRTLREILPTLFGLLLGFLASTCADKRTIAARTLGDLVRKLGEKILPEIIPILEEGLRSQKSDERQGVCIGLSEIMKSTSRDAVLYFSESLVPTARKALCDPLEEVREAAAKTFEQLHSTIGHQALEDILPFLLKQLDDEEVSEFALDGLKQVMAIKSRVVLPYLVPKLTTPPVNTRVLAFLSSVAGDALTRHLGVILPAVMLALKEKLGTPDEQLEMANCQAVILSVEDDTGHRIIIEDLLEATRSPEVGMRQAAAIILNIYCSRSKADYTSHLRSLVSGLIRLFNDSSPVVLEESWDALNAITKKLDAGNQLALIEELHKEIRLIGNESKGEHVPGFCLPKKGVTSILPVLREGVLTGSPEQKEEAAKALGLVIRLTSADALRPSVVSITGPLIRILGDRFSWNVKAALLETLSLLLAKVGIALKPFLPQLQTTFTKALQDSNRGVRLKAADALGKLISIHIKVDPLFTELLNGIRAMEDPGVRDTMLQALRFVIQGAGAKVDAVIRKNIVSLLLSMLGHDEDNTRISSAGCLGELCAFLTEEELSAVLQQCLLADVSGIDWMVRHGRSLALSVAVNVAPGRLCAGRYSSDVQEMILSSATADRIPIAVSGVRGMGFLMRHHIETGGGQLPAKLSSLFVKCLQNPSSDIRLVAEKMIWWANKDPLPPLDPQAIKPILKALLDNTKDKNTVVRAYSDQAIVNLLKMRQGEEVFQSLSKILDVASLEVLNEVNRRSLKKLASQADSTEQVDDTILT
# UniProt Q8WUX2: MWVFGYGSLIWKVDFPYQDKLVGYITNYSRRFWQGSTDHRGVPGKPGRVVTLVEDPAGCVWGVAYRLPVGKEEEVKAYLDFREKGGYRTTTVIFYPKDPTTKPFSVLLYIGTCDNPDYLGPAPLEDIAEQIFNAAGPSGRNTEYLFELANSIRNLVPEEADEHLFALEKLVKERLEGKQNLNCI
# The list shows a part of the results. Small differences around the control level are noise.
# Compound: CN[C@@H]1C[C@H]2O[C@@](C)([C@@H]1OC)n1c3ccccc3c3c4c(c5c6ccccc6n2c5c31)C(=O)NC4 [staurosporine]
# Experiment: log2 fold change of tryptic peptide abundance, ligand vs vehicle (limited proteolysis) (log2 ratio); higher = more trypsin-susceptible (destabilized)
# Conditions: ligand concentration: 20 uM; sample: K562 cleared lysate; digestion: 4 min, 22 C (HT-PELSA RT4min, Orbitrap Astral)
row,Target,log2 fold change
1,"ABHD5 (peptide sequence: MHPDIPVSVIFGAR, peptide start residue: 284) (UniProt Q8WTS1)",-0.371
2,"C15orf40 (peptide sequence: GCVTIAIHAKPGSK, peptide start residue: 61) (UniProt Q8WUR7)",-0.152
3,"UniProt Q8TE49 (peptide sequence: LLPLHFAVDPGK, peptide start residue: 386)",0.31
4,"DNAJC9 (peptide sequence: VSLQVHPDR, peptide start residue: 38) (UniProt Q8WXX5)",0.364
5,"NUP133 (peptide sequence: NETIAQEDKIK, peptide start residue: 510) (UniProt Q8WUM0)",-0.875
6,"TRPC4AP (peptide sequence: ILAVTISEMDTGNDDKHTLLAK, peptide start residue: 248) (UniProt Q8TEL6)",-0.331
7,"UniProt Q92600 (peptide sequence: QCLPDQLK, peptide start residue: 251)",0.265
8,"UniProt Q92616 (peptide sequence: SKADYTSHLR, peptide start residue: 2182)",0.323
9,"CHAC2 (peptide sequence: NLVPEEADEHLFALEK, peptide start residue: 154) (UniProt Q8WUX2)",0.108

# For convenience, part of the list above:
row,Target,log2 fold change
3,"UniProt Q8TE49 (peptide sequence: LLPLHFAVDPGK, peptide start residue: 386)",0.31
4,"DNAJC9 (peptide sequence: VSLQVHPDR, peptide start residue: 38) (UniProt Q8WXX5)",0.364
